Experiment [1] addresses C. albicans HSP90-mNeonGreen (C. albicans) (UniProt P46598). The experiment can be described thus: FRET or BRET; as the specificity experiment (donor 1 µM, acceptor 0-2250 nM) but ATP omitted from the buffer; both purified.
For experiment [2] the target is unchanged. Description: FRET or BRET; screening conditions, non-binding control: 1 µM donor, 2 µM acceptor, reaction buffer, 1% DMSO, no ATP, 15 min at 30 °C (C. albicans) or 37 °C (human); both purified.

Protein sequences, listed by entry. Tags and fused reporters are not part of them.
UniProt P46598: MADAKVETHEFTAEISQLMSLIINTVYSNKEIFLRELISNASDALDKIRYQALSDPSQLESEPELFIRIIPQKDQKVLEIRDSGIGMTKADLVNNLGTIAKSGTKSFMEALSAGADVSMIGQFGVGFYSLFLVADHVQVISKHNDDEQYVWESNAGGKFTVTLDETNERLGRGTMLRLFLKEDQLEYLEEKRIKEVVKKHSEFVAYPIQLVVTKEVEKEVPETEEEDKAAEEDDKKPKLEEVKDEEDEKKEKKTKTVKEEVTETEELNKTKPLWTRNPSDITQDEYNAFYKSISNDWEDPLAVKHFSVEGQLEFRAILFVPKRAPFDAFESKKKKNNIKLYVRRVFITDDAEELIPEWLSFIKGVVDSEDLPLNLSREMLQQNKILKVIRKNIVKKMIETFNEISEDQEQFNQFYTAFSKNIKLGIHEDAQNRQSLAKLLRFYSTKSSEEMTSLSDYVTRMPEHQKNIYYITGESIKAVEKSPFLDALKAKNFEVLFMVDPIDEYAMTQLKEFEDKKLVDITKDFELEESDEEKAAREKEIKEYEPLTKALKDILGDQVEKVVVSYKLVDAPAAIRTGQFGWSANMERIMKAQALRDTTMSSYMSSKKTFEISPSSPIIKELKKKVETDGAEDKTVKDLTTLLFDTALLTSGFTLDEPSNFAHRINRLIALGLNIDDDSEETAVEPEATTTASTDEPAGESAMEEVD
UniProt A0A1D8PQ94: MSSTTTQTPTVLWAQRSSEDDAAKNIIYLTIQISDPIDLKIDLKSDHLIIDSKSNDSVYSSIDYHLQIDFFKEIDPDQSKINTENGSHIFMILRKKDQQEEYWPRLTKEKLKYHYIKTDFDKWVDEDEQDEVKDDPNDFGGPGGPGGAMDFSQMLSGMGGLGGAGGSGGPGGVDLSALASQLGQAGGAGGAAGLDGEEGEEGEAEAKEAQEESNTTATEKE

Results are given in words; binding and its absence hold for the method and conditions named.

As to “C. albicans Sba1-mScarlet-I (from UniProt A0A1D8PQ94 1-221)”, the figures for the binding entry in experiment [1] and in experiment [2] were “no binding (condition: ATP omitted from the buffer)” and “no binding (condition: no ATP)”, respectively.
